Results: paper PMC11678778, “Anti-Inflammatory Properties of Novel 1,2-Benzothiazine Derivatives and Their Interaction with Phospholipid Model Membranes” (Membranes, 2024)

Experiment: Differential scanning calorimetry with phospholipid bilayers
Type: physicochemical
Details: for reduction in the DPPC main transition temperature compared to pure DPPC: highest compound/lipid molar ratio (0.12); for impact on the DPPC main transition temperature (in words): molar ratios 0.06-0.12

| Compound | reduction in the DPPC main transition temperature compared to pure DPPC [°C] | impact on the DPPC main transition temperature (in words) |
| --- | --- | --- |
| COc1ccc(C(=O)C2=C(O)c3ccccc3S(=O)(=O)N2CCCN2CCN(c3ncccn3)CC2)cc1 [BS24] | 4.425 |  |
| O=C(C1=C(O)c2ccccc2S(=O)(=O)N1CCCN1CCN(c2ncccn2)CC1)c1ccc(F)cc1 [BS27] | 2 | smallest impact on the transition temperature |
| O=C(C1=C(O)c2ccccc2S(=O)(=O)N1CCCN1CCN(c2ccccn2)CC1)c1ccc(F)cc1 [BS26] |  | smallest impact on the transition temperature |
